# Source: the supplement of paper PMC12889115
# The list shows a part of the results. These are raw signals, not scaled to a control.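 Primary screen: polymyxin B was added at a level permeabilizing Salmonella outer membranes while sparing inner membranes. DMSO wells, both with and without polymyxin B, established maximum growth. Plate-to-plate variation meant each plate was ranked on its own, and the lowest-OD600 compounds were selected as hits.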
# Test system: Salmonella enterica serovar Typhimurium SL1344
# Assay: bacterial growth OD600 after 18 h with compound and polymyxin B; higher = more bacterial growth (less inhibition)
# Settings: 50 µM, Mueller-Hinton broth
SMILES,bacterial growth OD600 (polymyxin B 1 µg/mL),bacterial growth OD600 (polymyxin B 0.75 µg/mL)
O=C(NCc1cnn(Cc2ccccc2)c1)C1CCC(=O)N(CCN2CCOCC2)C1 (stereo not given),0.857,–
CCCc1cc(CNC(=O)c2ccc(N3CCN(C(C)C)CC3)nc2)on1,0.95,–
COc1ccc(O)c(CN2CCC(C3(Cc4ccccc4Cl)NC(=O)N(CC4CC4)C3=O)CC2)c1 (stereo not given),–,0.743
OCCC1CN(Cc2ccc(F)cc2)CCN1Cc1ccccc1F (stereo not given),0.873,–
Cc1cc2ncn(Cc3cc(C(=O)N(C)C(C)c4nccs4)n[nH]3)c2cc1C (stereo not given),1.16,–
CC(=O)N1CCC(N2CCC(n3nccc3NC(=O)CCCc3ccccc3)CC2)CC1,0.932,–
CCOC(=O)N1CCN(C(=O)C2CC23CCN(C(=O)c2cc(C(C)C)n[nH]2)CC3)CC1 (stereo not given),–,1.01
COc1ccccc1Oc1ncccc1CNCc1cnn(C)c1,1.13,–
OCC1CCN(c2ncc3c(n2)CCCC3NCc2cccc(Cl)c2)CC1 (stereo not given),–,0.757
CC(c1cccs1)N(C)C(=O)c1cc(COc2ccc3c(c2)OCO3)[nH]n1 (stereo not given),1.02,–
COc1ccc(C(=O)N2CCC3(CC2)c2ccccc2[C@@H](NC(=O)c2ccccc2)[C@@H]3O)cc1F,–,0.995
CN(CC(=O)N(C)C1CCCN(CCc2ccccc2)C1)Cc1cccnc1 (stereo not given),1.05,–
COc1ccc(Cc2nc3ccc(C(=O)N(C)Cc4nccn4C)cc3o2)cc1,0.89,–
COC(=O)[C@@H](NC(=O)C1CCN(c2nc(C)c3ccccc3n2)CC1)C(C)C,–,0.893
CCn1nc(C)cc1C(=O)N(CC1CCN(Cc2ccccc2F)CC1)CC1CCCO1 (stereo not given),1.15,–
COc1ccccc1CCc1nnc(CCC(=O)N2CCN(CC3CC3)CC2)o1,0.918,–
CCOc1cc(CN2CCCC(Nc3cccc(F)c3)C2)ccc1O (stereo not given),0.868,–
CN(CCc1cnn(C)c1)C(=O)CC1(c2cccc(C(F)(F)F)c2)CC(=O)N(C2CC2)C1=O (stereo not given),–,0.764
O=C1CC(NC2CSCCSC2)CN1CCc1ccc(F)cc1 (stereo not given),0.952,–
Cc1ccc2c(c1)CN(CCNC(=O)C1=CCCC1)CC(C)O2 (stereo not given),–,0.799
COCC1CCN(C(=O)c2cc(COc3ccc(F)cc3Cl)on2)CC1,0.96,–
Cn1ccnc1CN1CCOC(CC2CCCCC2)C1 (stereo not given),–,0.859
Cc1ccc(C)c(OCc2cc(C(=O)N3CCCC4(CCCN(C)C4)C3)no2)c1 (stereo not given),–,0.788
Cc1nn(C)cc1CN1CCOc2ccc(C(O)C(c3ccccc3)c3ccccc3)cc2C1 (stereo not given),–,0.794
Cc1cccc(NC(=O)CCC2CCN(S(=O)(=O)c3ccsc3)CC2)c1,1.13,–
CCn1cc(C(=O)NCc2cccnc2N2CCCCCCC2)cn1,–,0.955
O=C(CCCc1ccccc1)Nc1cccc(N2CCC(N[C@@H]3CS(=O)(=O)C[C@H]3O)CC2)c1,–,0.814
NC(=O)C1(C(=O)N2CCc3onc(-c4cccc5ccccc45)c3C2)CC1,–,0.777
CSCC[C@H](NC(C)=O)C(=O)N1CCC(CCC(=O)Nc2cccc(C)c2)CC1,1.01,–
O=C1CCC(C(=O)N2CCC(OCc3ccccc3)CC2)CN1CCN1CCOCC1 (stereo not given),0.909,–

# One compound at a time (already shown). Values in the order: bacterial growth OD600 (polymyxin B 1 µg/mL) | bacterial growth OD600 (polymyxin B 0.75 µg/mL)
# Cc1cc2ncn(Cc3cc(C(=O)N(C)C(C)c4nccs4)n[nH]3)c2cc1C (stereo not given) as listed: 1.16 | –
# COC(=O)[C@@H](NC(=O)C1CCN(c2nc(C)c3ccccc3n2)CC1)C(C)C as listed: – | 0.893
